# Out of some 340,000 compounds screened, about 170 (0.05%) were called active. Inconclusive results, whose numbers are uncertain, are shown with a selection of clear calls. Calls follow the shape of the dose curve; as a rule, active = well fitted inhibition curve with a large enough effect in the signal ratio, with a control signal flat (not every such curve was filed as active); inconclusive = small, poorly fitted or top-dose-only effect, or effect the other way, or a change in a side signal; inactive = flat fitted curve, though single readings scatter; the % refers to the signal ratio. Where the call is inconclusive, the potency comes from a doubtful curve fit.
# Experiment: qHTS Assay to Find Inhibitors of Chronic Active B-Cell Receptor Signaling;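 as to activity change, negative = inhibition: plate controls were basal doxycycline-induced cells for no effect and cells given 10 µM MG132 for full effect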
# Settings: ABC-DLBCL IkBa-CBG/CBR reporter, luminescence ratio (green luciferase fused to IkBa over red control in TMD8 lymphoma cells), 4 h; activity change, negative = inhibition: at 46.1 µM (top of the series)
# Method in brief: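 Cell line TMD8 (human ABC DLBCL), stably expressing tet-inducible CBG68-IkBa fusion and CBR; IMDM/0.5% FBS; cpd up to 46 uM; dox induction, 4 h, 37C/5% CO2; dual luminescence; green/red ratio; MG132 control.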
# Potency is read from the fitted curve at half-maximal effect.
SMILES,"activity change, negative = inhibition",Potency
Cn1c(=O)cc(SCC(=O)NCc2cccnc2)c2ccccc21,inconclusive: 8.22%,
NC(=O)Cc1ccc(Nc2nnc(-c3ccc(O)cc3)c3ccccc23)cc1,,"inconclusive: 18.4 µM [falling, single point]"
CC1CCN(C(=O)c2ccc(SCc3ccccc3F)c([N+](=O)[O-])c2)CC1,inconclusive: 11.3%,
O=C(Nc1ccccc1)c1cc2ccccc2o1,,"inconclusive: 6.51 µM [rising, partial curve]"
CCS(=O)(=O)c1ccc2oc(SCC(=O)Nc3ccc(OC)cc3)nc2c1,inactive: 5.64%,
C/C(=N\NC(=O)c1nn(C)cc1Br)c1cccc(NC(=O)c2ccncc2)c1,,"inconclusive: 4.11 µM [falling, single point]"
CCc1ccc(NC(=O)Nc2cccc(OC)c2)cc1,,"inconclusive: 8.91 µM [falling, partial curve]"
CC(=O)c1sc(NC(=O)c2cccnc2Cl)nc1C,,"inconclusive: 1.26 µM [rising, partial curve, poor fit]"
O=C1c2cccc3c([N+](=O)[O-])c(O)cc(c23)C(=O)N1Nc1ccccc1,inconclusive: 3.51%,
CCC(=O)N(Cc1cc(=O)[nH]c2ccccc12)c1cccc(C)c1,inconclusive: -3.03%,
CCCCN(C(=O)C(C)Oc1ccc(Br)cc1)c1c(N)n(Cc2ccccc2)c(=O)[nH]c1=O (stereo not given),inconclusive: 2.89%,
COc1cccc2cc(C(=O)Nc3ccc(S(=O)(=O)NCC4CCCO4)cc3)c(=O)oc12 (stereo not given),,"inconclusive: 6.31 µM [falling, single point]"
COc1ccc(CNC(=O)C[C@H]2C(=O)N(CCc3ccccc3)C[C@@H]2Cc2ccccc2)cc1,,"inconclusive: 35.5 µM [falling, single point]"
COc1ccc(CCSc2nnc(C3CCCCC3)n2N)cc1,inconclusive: 13.6%,
c1ccc(-c2ccc(-c3nc(-c4cccnc4)no3)cc2)cc1,inconclusive: 6.98%,
O=C(COC(=O)c1ccccc1C(=O)c1ccc(Cl)c([N+](=O)[O-])c1)NC1CCCCCC1,inconclusive: 11.5%,
COc1ccc(CNCc2cccc3ccccc23)cc1,,"inconclusive: 35.5 µM [falling, partial curve, poor fit]"
Cc1ccc(SCCNS(C)(=O)=O)cc1,inconclusive: -2.02%,
CCCCN1C(=O)C2(NNc3ccccc3O2)c2ccccc21 (stereo not given),inconclusive: -7.42%,
Cc1cc(C)nc(SCCC(=O)Nc2ccccc2Cl)n1,,"inconclusive: 11.2 µM [falling, partial curve, poor fit]"

# Entries of single compounds, quoted from the list.
# Cc1ccc(SCCNS(C)(=O)=O)cc1 as listed: activity change, negative = inhibition: inconclusive: -2.02%
# CCCCN1C(=O)C2(NNc3ccccc3O2)c2ccccc21 (stereo not given) as listed: activity change, negative = inhibition: inconclusive: -7.42%

# Additional entries follow.

SMILES,"activity change, negative = inhibition",Potency
CC1CCN(c2nc(N(C)c3ccccc3)nc(N)c2[N+](=O)[O-])CC1,,"inconclusive: 8.91 µM [rising, partial curve, poor fit]"
CC1CC1c1ccc(/C=C(\C#N)C(=O)Nc2ccc(Cl)cc2)o1 (stereo not given),,"inconclusive: 20.6 µM [falling, partial curve]"
O=C(CSc1nc2ccccc2c(=O)n1-c1ccccc1Cl)NCC1CCCO1 (stereo not given),inconclusive: -11.8%,
CCOC(=O)COc1c(OC)cc(Cl)cc1C1Nc2ccccc2C(=O)N1c1ccc(F)cc1 (stereo not given),inconclusive: 16.3%,
CCOc1cc(/C=N/n2c(C)nnc2C)ccc1O,inconclusive: -16.8%,
COc1ccccc1/C=C/C(=O)c1ccccc1,,"inconclusive: 31.6 µM [rising, partial curve]"
CCCCNC(=O)c1onc(CSc2ccccc2C)c1C(=O)O,inconclusive: 12.6%,
O=C(O)c1ccc(-c2nnc(-c3cccc(Br)c3)o2)cc1,,"inconclusive: 3.98 µM [falling, partial curve, poor fit]"
COc1ccc(N2C(=O)CSC23C(=O)Nc2ccccc23)cc1OC (stereo not given),inconclusive: 0.485%,
COc1cccc(-n2nc(-c3ccnn3-c3ccccc3)c(=O)n(C)c2=O)c1,inconclusive: 29.3%,
CC(=O)c1ccc(OCC(O)CN2CCN(CC(O)COc3ccc(C(C)=O)cc3)CC2)cc1 (stereo not given),inactive: 0.728%,
Cc1ccc2nc(C)cc(C(=O)OCC(=O)c3ccc(Cl)c([N+](=O)[O-])c3)c2c1,inconclusive: -9.36%,
COc1ccccc1C1=NNC(=Nc2cccc(S(=O)(=O)N(C)C)c2)SC1,,"inconclusive: 12.6 µM [falling, partial curve]"
Cc1ccc(N2CCN(CC(O)COc3cccc(C)c3)CC2)cc1 (stereo not given),inconclusive: -2.6%,
N#Cc1cc(S(=O)(=O)c2ccccc2)c(N)[nH]c1=O,inconclusive: -0.167%,
Cn1ncc(Br)c1NC(=O)c1ccco1,inactive: -3.6%,
CCOC(=O)c1c(C)n(CCNC(C)=O)c2ccc(OC)cc12,inactive: -10.7%,
CCOc1ccc(CCNC(=O)COC(=O)CCc2cc(OC)c(OC)c(OC)c2)cc1OCC,inactive: -16.7%,
O=C(Nc1ccc2c(c1)CCC2)c1ccc(Br)s1,,"inconclusive: 35.5 µM [falling, single point]"
Cn1cc(-c2nnc(-c3ccccc3)o2)c2ccccc21,,"inconclusive: 2.24 µM [falling, full curve]"
